Laboratory results as given in the supplement of paper PMC10849652.
Some of the results follow.

Amino acid sequences for entries named in this document (tags omitted). A change or cut given only in a name is not applied to a line headed by its entry.
UniProt Q8TCS8: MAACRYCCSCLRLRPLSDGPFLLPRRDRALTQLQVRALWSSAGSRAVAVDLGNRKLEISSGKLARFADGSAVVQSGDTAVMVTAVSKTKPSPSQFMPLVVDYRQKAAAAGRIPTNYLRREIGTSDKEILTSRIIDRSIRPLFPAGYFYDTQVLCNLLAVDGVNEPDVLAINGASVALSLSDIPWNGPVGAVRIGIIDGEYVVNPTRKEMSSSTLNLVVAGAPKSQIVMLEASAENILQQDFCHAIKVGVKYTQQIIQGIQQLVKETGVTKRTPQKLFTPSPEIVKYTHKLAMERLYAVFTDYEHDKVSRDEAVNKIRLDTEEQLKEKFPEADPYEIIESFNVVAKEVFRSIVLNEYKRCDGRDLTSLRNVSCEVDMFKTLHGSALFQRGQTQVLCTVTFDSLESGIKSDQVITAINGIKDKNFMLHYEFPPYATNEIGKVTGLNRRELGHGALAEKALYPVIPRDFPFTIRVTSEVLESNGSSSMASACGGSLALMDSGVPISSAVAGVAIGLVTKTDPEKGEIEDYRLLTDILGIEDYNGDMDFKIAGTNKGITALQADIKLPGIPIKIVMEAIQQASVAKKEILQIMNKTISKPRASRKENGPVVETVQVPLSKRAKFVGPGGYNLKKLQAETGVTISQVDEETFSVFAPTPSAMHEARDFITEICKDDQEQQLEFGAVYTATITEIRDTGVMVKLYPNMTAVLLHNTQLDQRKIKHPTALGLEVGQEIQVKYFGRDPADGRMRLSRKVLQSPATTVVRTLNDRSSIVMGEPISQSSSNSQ
UniProt Q9NVS9: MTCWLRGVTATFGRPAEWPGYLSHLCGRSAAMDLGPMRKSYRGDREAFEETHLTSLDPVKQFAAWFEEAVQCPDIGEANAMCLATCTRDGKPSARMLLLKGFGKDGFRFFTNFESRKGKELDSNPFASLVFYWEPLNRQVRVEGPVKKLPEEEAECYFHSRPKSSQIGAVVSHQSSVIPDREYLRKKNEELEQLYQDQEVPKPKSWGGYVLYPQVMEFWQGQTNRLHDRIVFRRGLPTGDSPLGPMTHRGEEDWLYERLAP
UniProt Q9NRF9: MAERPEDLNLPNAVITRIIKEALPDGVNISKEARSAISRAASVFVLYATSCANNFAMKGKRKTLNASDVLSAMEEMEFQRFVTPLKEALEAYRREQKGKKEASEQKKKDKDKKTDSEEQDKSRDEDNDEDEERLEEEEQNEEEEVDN
UniProt P62937, whole entry, looked up: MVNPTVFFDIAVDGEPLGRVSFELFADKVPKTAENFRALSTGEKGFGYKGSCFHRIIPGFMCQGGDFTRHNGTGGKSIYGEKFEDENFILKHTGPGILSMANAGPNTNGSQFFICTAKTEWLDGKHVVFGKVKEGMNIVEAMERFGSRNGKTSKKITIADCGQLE
UniProt Q9UNP9: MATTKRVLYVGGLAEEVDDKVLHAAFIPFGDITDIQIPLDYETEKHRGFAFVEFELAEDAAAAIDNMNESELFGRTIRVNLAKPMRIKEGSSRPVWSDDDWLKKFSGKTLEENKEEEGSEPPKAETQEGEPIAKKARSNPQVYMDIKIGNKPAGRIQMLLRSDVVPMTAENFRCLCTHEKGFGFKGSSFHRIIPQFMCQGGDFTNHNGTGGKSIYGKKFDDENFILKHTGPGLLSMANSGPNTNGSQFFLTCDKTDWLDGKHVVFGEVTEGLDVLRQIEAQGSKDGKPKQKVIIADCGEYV
UniProt Q8N490: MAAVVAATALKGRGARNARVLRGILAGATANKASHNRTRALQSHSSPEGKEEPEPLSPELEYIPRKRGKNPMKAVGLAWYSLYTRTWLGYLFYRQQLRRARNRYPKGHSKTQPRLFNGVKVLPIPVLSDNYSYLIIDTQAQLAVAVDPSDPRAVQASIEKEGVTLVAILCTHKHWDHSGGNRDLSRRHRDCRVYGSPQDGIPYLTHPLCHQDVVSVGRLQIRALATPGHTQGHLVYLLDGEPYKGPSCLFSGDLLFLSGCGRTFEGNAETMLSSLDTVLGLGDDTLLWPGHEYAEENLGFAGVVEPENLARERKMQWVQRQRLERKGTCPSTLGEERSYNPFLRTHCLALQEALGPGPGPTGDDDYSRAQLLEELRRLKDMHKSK
UniProt P16435: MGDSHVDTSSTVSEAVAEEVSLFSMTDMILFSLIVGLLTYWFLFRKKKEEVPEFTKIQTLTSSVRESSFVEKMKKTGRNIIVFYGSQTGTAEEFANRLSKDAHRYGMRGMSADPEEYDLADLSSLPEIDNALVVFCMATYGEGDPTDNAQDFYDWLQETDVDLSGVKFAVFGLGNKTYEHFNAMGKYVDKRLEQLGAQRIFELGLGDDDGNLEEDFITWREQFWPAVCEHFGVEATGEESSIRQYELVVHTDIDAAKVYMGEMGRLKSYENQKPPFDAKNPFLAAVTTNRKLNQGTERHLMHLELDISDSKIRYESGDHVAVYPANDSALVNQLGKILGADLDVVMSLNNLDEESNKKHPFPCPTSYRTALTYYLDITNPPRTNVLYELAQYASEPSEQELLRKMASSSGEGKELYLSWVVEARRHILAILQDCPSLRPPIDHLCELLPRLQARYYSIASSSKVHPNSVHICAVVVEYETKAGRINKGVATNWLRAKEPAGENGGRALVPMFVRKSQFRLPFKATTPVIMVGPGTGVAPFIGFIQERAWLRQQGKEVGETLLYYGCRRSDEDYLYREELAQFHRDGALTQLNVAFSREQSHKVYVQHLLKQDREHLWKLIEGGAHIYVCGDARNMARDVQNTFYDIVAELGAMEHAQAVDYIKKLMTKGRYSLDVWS
UniProt Q9NVU0: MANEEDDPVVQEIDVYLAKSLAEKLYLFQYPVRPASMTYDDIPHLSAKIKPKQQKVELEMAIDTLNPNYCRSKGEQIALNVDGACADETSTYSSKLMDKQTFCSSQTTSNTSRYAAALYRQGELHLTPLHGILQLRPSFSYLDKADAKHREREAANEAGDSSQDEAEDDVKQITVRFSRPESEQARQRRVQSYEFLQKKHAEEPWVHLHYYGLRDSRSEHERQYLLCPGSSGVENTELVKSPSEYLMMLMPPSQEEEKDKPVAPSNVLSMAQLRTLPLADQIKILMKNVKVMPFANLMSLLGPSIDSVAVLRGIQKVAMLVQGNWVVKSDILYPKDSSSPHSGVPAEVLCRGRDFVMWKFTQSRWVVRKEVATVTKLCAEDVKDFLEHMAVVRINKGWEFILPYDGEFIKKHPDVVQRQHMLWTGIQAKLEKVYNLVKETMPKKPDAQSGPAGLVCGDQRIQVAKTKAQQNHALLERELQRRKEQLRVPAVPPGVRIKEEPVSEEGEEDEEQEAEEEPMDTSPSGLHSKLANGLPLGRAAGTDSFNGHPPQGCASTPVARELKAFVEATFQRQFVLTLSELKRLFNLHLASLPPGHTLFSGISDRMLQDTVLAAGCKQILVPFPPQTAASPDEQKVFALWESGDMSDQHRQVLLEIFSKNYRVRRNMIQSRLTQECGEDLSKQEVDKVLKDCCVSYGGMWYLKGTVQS
UniProt Q9UIW2: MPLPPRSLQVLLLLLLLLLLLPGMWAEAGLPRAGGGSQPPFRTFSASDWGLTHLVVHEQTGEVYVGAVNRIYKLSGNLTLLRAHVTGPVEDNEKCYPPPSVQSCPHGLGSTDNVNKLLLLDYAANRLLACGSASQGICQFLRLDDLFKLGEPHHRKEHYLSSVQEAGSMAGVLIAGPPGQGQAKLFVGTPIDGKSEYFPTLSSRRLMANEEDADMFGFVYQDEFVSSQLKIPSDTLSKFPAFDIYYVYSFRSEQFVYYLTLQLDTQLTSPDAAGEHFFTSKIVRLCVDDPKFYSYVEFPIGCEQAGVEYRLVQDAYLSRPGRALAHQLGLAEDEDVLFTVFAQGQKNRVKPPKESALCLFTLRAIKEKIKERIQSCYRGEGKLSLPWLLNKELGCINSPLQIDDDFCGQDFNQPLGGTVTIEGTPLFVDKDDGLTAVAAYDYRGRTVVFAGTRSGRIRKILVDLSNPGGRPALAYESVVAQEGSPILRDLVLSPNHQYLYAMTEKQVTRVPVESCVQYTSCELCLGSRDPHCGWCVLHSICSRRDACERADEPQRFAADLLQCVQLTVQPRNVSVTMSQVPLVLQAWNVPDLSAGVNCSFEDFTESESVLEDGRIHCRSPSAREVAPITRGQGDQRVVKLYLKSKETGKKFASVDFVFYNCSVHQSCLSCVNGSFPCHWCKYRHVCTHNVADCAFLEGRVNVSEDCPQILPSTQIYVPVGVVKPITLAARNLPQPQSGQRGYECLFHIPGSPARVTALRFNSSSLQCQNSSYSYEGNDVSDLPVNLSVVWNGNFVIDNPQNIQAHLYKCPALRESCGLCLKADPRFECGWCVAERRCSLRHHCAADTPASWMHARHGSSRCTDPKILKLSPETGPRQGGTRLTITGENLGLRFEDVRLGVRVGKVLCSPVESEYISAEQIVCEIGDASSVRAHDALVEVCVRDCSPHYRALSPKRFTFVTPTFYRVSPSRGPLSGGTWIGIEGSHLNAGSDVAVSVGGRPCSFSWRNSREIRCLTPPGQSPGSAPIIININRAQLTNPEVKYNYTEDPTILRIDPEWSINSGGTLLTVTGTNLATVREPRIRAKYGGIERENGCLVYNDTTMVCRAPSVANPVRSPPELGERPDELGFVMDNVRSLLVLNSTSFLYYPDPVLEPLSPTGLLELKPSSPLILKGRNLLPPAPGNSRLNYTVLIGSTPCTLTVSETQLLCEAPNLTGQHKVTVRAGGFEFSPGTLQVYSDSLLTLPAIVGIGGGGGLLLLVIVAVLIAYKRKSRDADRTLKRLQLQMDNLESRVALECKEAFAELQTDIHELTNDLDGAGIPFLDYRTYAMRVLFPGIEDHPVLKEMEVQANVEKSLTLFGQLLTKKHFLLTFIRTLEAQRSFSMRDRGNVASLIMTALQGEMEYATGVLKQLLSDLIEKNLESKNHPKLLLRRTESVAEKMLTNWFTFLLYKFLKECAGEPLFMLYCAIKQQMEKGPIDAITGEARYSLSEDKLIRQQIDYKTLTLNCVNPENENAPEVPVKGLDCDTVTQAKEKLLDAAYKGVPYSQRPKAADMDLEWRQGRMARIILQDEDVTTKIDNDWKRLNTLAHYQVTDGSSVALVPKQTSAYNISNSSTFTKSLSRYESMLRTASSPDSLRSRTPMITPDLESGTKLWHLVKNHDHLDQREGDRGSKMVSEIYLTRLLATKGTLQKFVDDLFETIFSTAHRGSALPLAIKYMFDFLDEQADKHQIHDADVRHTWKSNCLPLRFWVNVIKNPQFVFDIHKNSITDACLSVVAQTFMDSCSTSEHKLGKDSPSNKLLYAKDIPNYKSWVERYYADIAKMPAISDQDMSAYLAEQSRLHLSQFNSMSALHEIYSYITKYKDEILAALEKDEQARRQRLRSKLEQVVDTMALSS
UniProt O15160, whole entry, looked up: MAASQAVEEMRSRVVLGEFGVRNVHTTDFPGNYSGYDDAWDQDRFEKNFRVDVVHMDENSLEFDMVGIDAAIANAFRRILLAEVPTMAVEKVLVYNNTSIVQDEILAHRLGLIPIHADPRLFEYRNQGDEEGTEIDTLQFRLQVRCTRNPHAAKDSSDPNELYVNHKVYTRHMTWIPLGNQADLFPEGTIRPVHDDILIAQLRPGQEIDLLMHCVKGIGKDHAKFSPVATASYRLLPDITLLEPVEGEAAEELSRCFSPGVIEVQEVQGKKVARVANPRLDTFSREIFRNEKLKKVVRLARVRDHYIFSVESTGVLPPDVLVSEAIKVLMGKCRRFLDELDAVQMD
UniProt Q9NRX1: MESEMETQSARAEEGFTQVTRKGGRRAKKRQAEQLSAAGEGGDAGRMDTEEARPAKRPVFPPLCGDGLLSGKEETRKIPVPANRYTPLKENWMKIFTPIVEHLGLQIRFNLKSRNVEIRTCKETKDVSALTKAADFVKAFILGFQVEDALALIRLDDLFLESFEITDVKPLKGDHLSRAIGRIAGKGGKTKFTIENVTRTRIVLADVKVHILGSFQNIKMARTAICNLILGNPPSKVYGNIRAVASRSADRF
UniProt O75817: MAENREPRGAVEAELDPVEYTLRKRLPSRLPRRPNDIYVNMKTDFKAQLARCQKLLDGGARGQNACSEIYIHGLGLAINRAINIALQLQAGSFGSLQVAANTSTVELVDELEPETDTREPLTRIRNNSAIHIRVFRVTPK
UniProt O43447: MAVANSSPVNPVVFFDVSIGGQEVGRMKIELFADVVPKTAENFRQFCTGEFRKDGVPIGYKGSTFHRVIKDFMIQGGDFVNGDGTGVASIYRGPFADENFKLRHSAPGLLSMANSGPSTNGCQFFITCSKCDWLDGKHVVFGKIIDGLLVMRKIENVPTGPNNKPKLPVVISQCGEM
UniProt P30405: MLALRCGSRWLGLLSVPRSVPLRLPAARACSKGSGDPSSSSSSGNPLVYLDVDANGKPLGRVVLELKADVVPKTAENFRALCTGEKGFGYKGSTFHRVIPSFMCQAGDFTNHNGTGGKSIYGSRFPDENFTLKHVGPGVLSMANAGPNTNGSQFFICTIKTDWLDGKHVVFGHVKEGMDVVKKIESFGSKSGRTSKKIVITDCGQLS

Tests used:
Assay in all cases: log2 fold change, soluble protein after heating vs DMSO (PISA); higher = thermal stabilisation; K562 cells, 10 uM, 30 min; active = over 0.2 and 3.5 SD of the protein, either way, in both replicates (recomputed)
[1] = compound: COC1=CC=C(C=C1)CN2C=CC3=C2C=C(C=C3)C(=O)NO
Outline: (§1)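 Values are thermal stability changes relative to control samples and are taken from duplicates. They are stated as log2 fold changes. Before quantification by TMTpro 16plex LC-MS/MS with equalised channel sums, K562 cells at 2×10^6 cells/mL were treated with 10 μM compound for 30 min, heated in aliquots for 3 min across 48°C-58°C, pooled, extracted in PBS with 0.5% NP-40 at 4°C, and centrifuged at 21,000xg for 90 min to give the soluble supernatant.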

[2] = compound: CON(C)C(=O)N1N=C(c2cc(F)ccc2F)S[C@@]1(CCCN)c1ccccc1 [filanesib]
Outline: as §1

[3] = compound: CO[C@H]1C[C@@H]2CC[C@@H](C)[C@@](O)(O2)C(=O)C(=O)N2CCCC[C@H]2C(=O)O[C@H]([C@H](C)C[C@@H]2CC[C@H](n3cnnn3)[C@H](OC)C2)CC(=O)[C@H](C)/C=C(\C)[C@@H](O)[C@@H](OC)C(=O)[C@H](C)C[C@H](C)/C=C/C=C/C=C/1C [zotarolimus]
Outline: as §1

[4] = compound: COc1cc(C(=O)O)ccc1NC(=O)[C@@H]1N[C@@H](CC(C)(C)C)[C@](C#N)(c2ccc(Cl)cc2F)[C@H]1c1cccc(Cl)c1F [idasanutlin]
Outline: as §1

[5] = compound: COc1cc(Nc2ncc3c(n2)-c2ccc(Cl)cc2C(c2c(F)cccc2OC)=NC3)ccc1C(=O)O [alisertib]
Outline: as §1

[6] = compound: COc1cc2nc(-c3cc(F)ccc3O)nc(N[C@@H]3CNC[C@H]3C(C)(C)O)c2cc1OC
Outline: as §1

[7] = compound: COc1cc2ncnc(Nc3ccc(F)c(Cl)c3)c2cc1OCCCN1CCOCC1 [gefitinib]
Outline: as §1

[8] = compound: COc1cccc2cc(-c3nc([C@H]4CC[C@H](C(=O)O)CC4)n4ncnc(N)c34)[nH]c12
Outline: as §1

[9] = compound: CS(=O)(=O)CCNCc1ccc(-c2ccc3ncnc(Nc4ccc(OCc5cccc(F)c5)c(Cl)c4)c3c2)o1 [lapatinib]
Outline: as §1

[10] = compound: CS(=O)(=O)N1CCN(Cc2cc3nc(-c4cccc5[nH]ncc45)nc(N4CCOCC4)c3s2)CC1 [pictilisib]
Outline: as §1

[11] = compound: CS(=O)(=O)c1ccc(-c2cnc(N)c(C(=O)Nc3ccccc3)n2)cc1
Outline: as §1

[12] = compound: C[C@@H](Oc1cc(-c2cnn(C3CCNCC3)c2)cnc1N)c1c(Cl)ccc(F)c1Cl [crizotinib]
Outline: as §1

[13] = compound: C[C@@H]1COCCN1C2=NC(=NC(=C2)C3(CC3)S(=O)(=O)C)C4=C5C=CNC5=CC=C4
Outline: as §1

[14] = compound: C[C@H](C1=CC=C(C=C1)C(=O)NC2=C3C=CNC3=NC=C2)N
Outline: as §1

[15] = compound: C[C@H](Nc1ncnc2nc[nH]c12)c1cc2cccc(Cl)c2c(=O)n1-c1ccccc1 [duvelisib]
Outline: as §1

[16] = compound: Cc1cc(Nc2cc(CN3CCOCC3)c3nc(C)c(Cc4ccc(Cl)cc4F)n3n2)n[nH]1 [gandotinib]
Outline: as §1

[17] = compound: Cc1cc(Nc2cc(N3CCN(C)CC3)nc(Sc3ccc(NC(=O)C4CC4)cc3)n2)n[nH]1 [tozasertib]
Outline: as §1

[18] = compound: Cc1cc(SCc2sc(-c3ccc(C(F)(F)F)cc3)nc2C)ccc1OCC(=O)O
Outline: as §1

[19] = compound: Cc1ccc(-n2nc(C(C)(C)C)cc2NC(=O)Nc2ccc(OCCN3CCOCC3)c3ccccc23)cc1 [doramapimod]
Outline: as §1

[20] = compound: Cc1ccc(C(=O)N(CCCN)[C@@H](c2nc3cc(Cl)ccc3c(=O)n2Cc2ccccc2)C(C)C)cc1 [ispinesib]
Outline: as §1

Measured: log2 fold change

PNPT1 (UniProt Q8TCS8)
inactive: [1] 0.033 | [2] -0.036 | [3] 0.013 | [4] -0.082 | [5] 0.018 | [6] 0.074 | [7] 0.068 | [8] 0.041 | [9] -0.017 | [10] -0.002 | [11] 0 | [12] 0.11 | [13] 0.066 | [14] -0.008 | [15] 0.07 | [16] -0.107 | [17] 0.011 | [18] 0.051 | [19] -0.057 | [20] 0.071

PNPO (UniProt Q9NVS9)
inactive: [1] 0.029 | [2] -0.055 | [3] 0.002 | [4] -0.004 | [5] -0.034 | [6] -0.024 | [7] -0.02 | [8] 0.003 | [9] -0.069 | [10] -0.073 | [11] 0.006 | [12] 0.035 | [13] 0.098 | [14] -0.043 | [15] 0.028 | [16] -0.004 | [17] -0.009 | [18] 0.045 | [19] -0.019 | [20] 0.186

POLE3 (UniProt Q9NRF9)
inactive: [1] 0.007 | [2] 0.021 | [3] 0.021 | [4] 0.003 | [5] -0.019 | [6] 0.016 | [7] 0 | [8] 0.003 | [9] -0.005 | [10] -0.02 | [11] -0.005 | [12] -0.017 | [13] 0.014 | [14] -0.031 | [15] 0.071 | [16] 0.019 | [17] -0.025 | [18] 0.08 | [19] -0.003 | [20] 0.102

PPIA (UniProt P62937)
inactive: [1] 0.021 | [2] -0.035 | [3] 0 | [4] -0.003 | [5] -0.046 | [6] 0.039 | [7] 0.035 | [8] -0.002 | [9] -0.019 | [10] 0.012 | [11] 0.014 | [12] 0.034 | [13] 0.078 | [14] -0.034 | [15] 0.012 | [16] -0.005 | [17] -0.009 | [18] -0.008 | [19] -0.001 | [20] 0.066

PPIE (UniProt Q9UNP9)
inactive: [1] -0.076 | [2] -0.023 | [3] -0.032 | [4] 0 | [5] -0.006 | [6] 0.023 | [7] 0.016 | [8] -0.006 | [9] -0.019 | [10] 0.01 | [11] 0.087 | [12] 0.141 | [13] -0.054 | [14] -0.028 | [15] -0.029 | [16] 0.045 | [17] 0.015 | [18] -0.058 | [19] -0.023 | [20] 0.108

PNKD isoform 2 (UniProt Q8N490)
inactive: [1] -0.051 | [2] -0.008 | [3] -0.066 | [4] -0.025 | [5] -0.094 | [6] 0.001 | [7] 0.03 | [8] 0.04 | [9] -0.086 | [10] 0.052 | [11] 0.036 | [12] 0.08 | [13] 0.126 | [14] 0.046 | [15] 0.139 | [16] 0.052 | [17] -0.024 | [18] 0.08 | [19] -0.05 | [20] -0.103

POR (UniProt P16435)
inactive: [1] 0.004 | [2] -0.076 | [3] 0.027 | [4] -0.047 | [5] -0.087 | [6] 0.082 | [7] 0.022 | [8] 0.008 | [9] -0.034 | [10] 0.123 | [11] 0.023 | [12] 0.079 | [13] 0.048 | [14] -0.072 | [15] 0.062 | [16] 0.019 | [17] -0.02 | [18] 0 | [19] -0.036 | [20] 0.031

POLR3E (UniProt Q9NVU0)
inactive: [1] 0.01 | [2] 0.053 | [3] 0.065 | [4] 0.003 | [5] 0.013 | [6] 0.064 | [7] 0.114 | [8] -0.051 | [9] -0.059 | [10] -0.039 | [11] 0.122 | [12] 0.002 | [13] 0.004 | [14] 0.122 | [15] -0.047 | [16] -0.084 | [17] -0.019 | [18] 0.139 | [19] 0.066 | [20] -0.106

PLXNA1 (UniProt Q9UIW2)
inactive: [1] 0.004 | [2] 0.063 | [3] -0.011 | [4] 0.003 | [5] -0.015 | [6] 0.053 | [7] -0.043 | [8] 0.042 | [9] -0.037 | [10] 0.028 | [11] 0.023 | [12] 0.048 | [13] 0.085 | [14] -0.034 | [15] 0.051 | [16] -0.089 | [17] -0.035 | [18] -0.031 | [19] -0.001 | [20] 0.084

POLR1C (UniProt O15160)
inactive: [1] -0.137 | [2] 0.067 | [3] 0.075 | [4] 0.01 | [5] -0.041 | [6] 0.011 | [7] 0.053 | [8] -0.139 | [9] 0.055 | [10] 0.045 | [11] 0.064 | [12] 0.083 | [13] 0.019 | [14] 0 | [15] -0.043 | [16] 0.009 | [17] 0.108 | [18] 0.175 | [19] 0.058 | [20] -0.154

PNO1 (UniProt Q9NRX1)
inactive: [1] 0.028 | [2] 0.199 | [3] -0.002 | [4] 0.076 | [5] -0.112 | [6] 0.202 | [7] -0.006 | [8] -0.247 | [9] 0.031 | [10] -0.24 | [11] -0.022 | [12] -0.083 | [13] -0.214 | [14] 0.364 | [15] -0.138 | [16] 0.06 | [17] 0.091 | [18] 0.055 | [19] 0.1 | [20] -0.214

POP7 (UniProt O75817)
inactive: [1] 0.039 | [2] 0.034 | [3] 0.071 | [4] 0.12 | [5] -0.121 | [6] -0.125 | [7] -0.089 | [8] 0.054 | [9] 0.062 | [10] -0.049 | [11] -0.076 | [12] -0.017 | [13] 0.169 | [14] 0.003 | [15] -0.039 | [16] 0.244 | [17] 0.01 | [18] 0.022 | [19] 0.038 | [20] -0.186

PPIH (UniProt O43447)
inactive: [1] 0.123 | [2] -0.028 | [3] -0.011 | [4] -0.08 | [5] -0.057 | [6] 0.042 | [7] 0.018 | [8] -0.019 | [9] -0.015 | [10] 0.058 | [11] 0.025 | [12] -0.049 | [13] 0.028 | [14] -0.017 | [15] 0.026 | [16] -0.083 | [17] -0.016 | [18] 0.015 | [19] -0.016 | [20] 0.035

PPIF (UniProt P30405)
inactive: [1] -0.176 | [2] -0.035 | [3] 0.036 | [4] -0.075 | [5] -0.055 | [6] 0.073 | [7] 0.041 | [8] 0.025 | [9] -0.045 | [10] 0.012 | [11] 0.023 | [12] 0.099 | [13] 0.037 | [14] -0.104 | [15] 0.068 | [16] -0.026 | [17] -0.036 | [18] 0.03 | [19] -0.078 | [20] 0.056

PLS1 (UniProt Q14651)
inactive: [1] 0.012 | [2] 0.01 | [3] 0.036 | [4] -0.053 | [5] -0.025 | [6] 0.017 | [7] 0.02 | [8] -0.005 | [9] 0.024 | [10] 0.023 | [11] 0.015 | [12] -0.048 | [13] 0.044 | [14] 0.001 | [15] 0.06 | [16] -0.024 | [17] 0.004 | [18] 0.034 | [19] -0.032 | [20] 0.026
